Data: patent US20250283871A1, “COMPOSITIONS AND METHODS FOR MODULATING THE INTERACTION BETWEEN SS18-SSX FUSION ONCOPROTEIN AND NUCLEOSOMES” (Dana-Farber Cancer Institute, Inc., priority 2020, published 2025)

B1: DDX23 (protein, UniProt Q9BUQ8 1-820, looked up)
Probable ATP-dependent RNA …: MAGELADKKDRDASPSKEERKRSRTPDRERDRDRDRKSSPSKDRKRHRSRDRRRGGSRSRSRSRSKSAERERRHKERERDKERDRNKKDRDRDKDGHRRDKDRKRSSLSPGRGKDFKSRKDRDSKKDEEDEHGDKKPKAQPLSLEELLAKKKAEEEAEAKPKFLSKAEREAEALKRRQQEVEERQRMLEEERKKRKQFQDLGRKMLEDPQERERRERRERMERETNGNEDEEGRQKIREEKDKSKELHAIKERYLGGIKKRRRTRHLNDRKFVFEWDASEDTSIDYNPLYKERHQVQLLGRGFIAGIDLKQQKREQSRFYGDLMEKRRTLEEKEQEEARLRKLRKKEAKQRWDDRHWSQKKLDEMTDRDWRIFREDYSITTKGGKIPNPIRSWKDSSLPPHILEVIDKCGYKEPTPIQRQAIPIGLQNRDIIGVAETGSGKTAAFLIPLLVWITTLPKIDRIEESDQGPYAIILAPTRELAQQIEEETIKFGKPLGIRTVAVIGGISREDQGFRLRMGCEIVIATPGRLIDVLENRYLVLSRCTYVVLDEADRMIDMGFEPDVQKILEHMPVSNQKPDTDEAEDPEKMLANFESGKHKYRQTVMFTATMPPAVERLARSYLRRPAVVYIGSAGKPHERVEQKVFLMSESEKRKKLLAILEQGFDPPIIIFVNQKKGCDVLAKSLEKMGYNACTLHGGKGQEQREFALSNLKAGAKDILVATDVAGRGIDIQDVSMVVNYDMAKNIEDYIHRIGRTGRAGKSGVAITFLTKEDSAVFYELKQAILESPVSSCPPELANHPDAQHKPGTILTKKRREETIFA
B2: SPATA5L1 (protein, UniProt Q9BVQ7 1-753, looked up)
ATPase family gene 2 protein …: MAPDSDPFPEGPLLKLLPLDARDRGTQRCRLGPAALHALGARLGSAVKISLPDGGSCLCTAWPRRDGADGFVQLDPLCASPGAAVGASRSRRSLSLNRLLLVPCPPLRRVAVWPVLRERAGAPGARNTAAVLEAAQELLRNRPISLGHVVVAPPGAPGLVAALHIVGGTPSPDPAGLVTPRTRVSLGGEPPSEAQPQPEVPLGGLSEAADSLRELLRLPLRYPRALTALGLAVPRGVLLAGPPGVGKTQLVRAVAREAGAELLAVSAPALQGSRPGETEENVRRVFQRARELASRGPSLLFLDEMDALCPQRGSRAPESRVVAQVLTLLDGASGDREVVVVGATNRPDALDPALRRPGRFDREVVIGTPTLKQRKEILQVITSKMPISSHVDLGLLAEMTVGYVGADLTALCREAAMHALLHSEKNQDNPVIDEIDFLEAFKNIQPSSFRSVIGLMDIKPVDWEEIGGLEDVKLKLKQSIEWPLKFPWEFVRMGLTQPKGVLLYGPPGCAKTTLVRALATSCHCSFVSVSGADLFSPFVGDSEKVLSQIFRQARASTPAILFLDEIDSILGARSASKTGCDVQERVLSVLLNELDGVGLKTIERRGSKSSQQEFQEVFNRSVMIIAATNRPDVLDTALLRPGRLDKIIYIPPPDHKGRLSILKVCTKTMPIGPDVSLENLAAETCFFSGADLRNLCTEAALLALQENGLDATTVKQEHFLKSLKTVKPSLSCKDLALYENLFKKEGFSNVEGI
B3: SLC30A9 (protein, UniProt Q6PML9 68-568, looked up)
Proton-coupled zinc …: STNVQKEGQGSQTLRVEKVPSFETAEGIGTELKAPLKQEPLQVRVKAVLKKREYGSKYTQNNFITGVRAINEFCLKSSDLEQLRKIRRRSPHEDTESFTVYLRSDVEAKSLEVWGSPEALAREKKLRKEAEIEYRERLFRNQKILREYRDFLGNTKPRSRTASVFFKGPGKVVMVAICINGLNCFFKFLAWIYTGSASMFSEAIHSLSDTCNQGLLALGISKSVQTPDPSHPYGFSNMRYISSLISGVGIFMMGAGLSWYHGVMGLLHPQPIESLLWAYCILAGSLVSEGATLLVAVNELRRNARAKGMSFYKYVMESRDPSTNVILLEDTAAVLGVIIAATCMGLTSITGNPLYDSLGSLGVGTLLGMVSAFLIYTNTEALLGRSIQPEQVQRLTELLENDPSVRAIHDVKATDLGLGKVRFKAEVDFDGRVVTRSYLEKQDFDQMLQEIQEVKTPEELETFMLKHGENIIDTLGAEVDRLEKELKKRNPEVRHVDLEIL
B4: WDR33 (protein, UniProt Q9C0J8 2-1336, looked up)
pre-mRNA 3' end processing …: ATEIGSPPRFFHMPRFQHQAPRQLFYKRPDFAQQQAMQQLTFDGKRMRKAVNRKTIDYNPSVIKYLENRIWQRDQRDMRAIQPDAGYYNDLVPPIGMLNNPMNAVTTKFVRTSTNKVKCPVFVVRWTPEGRRLVTGASSGEFTLWNGLTFNFETILQAHDSPVRAMTWSHNDMWMLTADHGGYVKYWQSNMNNVKMFQAHKEAIREASFSPTDNKFATCSDDGTVRIWDFLRCHEERILRGHGADVKCVDWHPTKGLVVSGSKDSQQPIKFWDPKTGQSLATLHAHKNTVMEVKLNLNGNWLLTASRDHLCKLFDIRNLKEELQVFRGHKKEATAVAWHPVHEGLFASGGSDGSLLFWHVGVEKEVGGMEMAHEGMIWSLAWHPLGHILCSGSNDHTSKFWTRNRPGDKMRDRYNLNLLPGMSEDGVEYDDLEPNSLAVIPGMGIPEQLKLAMEQEQMGKDESNEIEMTIPGLDWGMEEVMQKDQKKVPQKKVPYAKPIPAQFQQAWMQNKVPIPAPNEVLNDRKEDIKLEEKKKTQAEIEQEMATLQYTNPQLLEQLKIERLAQKQVEQIQPPPSSGTPLLGPQPFPGQGPMSQIPQGFQQPHPSQQMPMNMAQMGPPGPQGQFRPPGPQGQMGPQGPPLHQGGGGPQGFMGPQGPQGPPQGLPRPQDMHGPQGMQRHPGPHGPLGPQGPPGPQGSSGPQGHMGPQGPPGPQGHIGPQGPPGPQGHLGPQGPPGTQGMQGPPGPRGMQGPPHPHGIQGGPGSQGIQGPVSQGPLMGLNPRGMQGPPGPRENQGPAPQGMIMGHPPQEMRGPHPPGGLLGHGPQEMRGPQEIRGMQGPPPQGSMLGPPQELRGPPGSQSQQGPPQGSLGPPPQGGMQGPPGPQGQQNPARGPHPSQGPIPFQQQKTPLLGDGPRAPFNQEGQSTGPPPLIPGLGQQGAQGRIPPLNPGQGPGPNKGDSRGPPNHHMGPMSERRHEQSGGPEHGPERGPFRGGQDCRGPPDRRGPHPDFPDDFSRPDDFHPDKRFGHRLREFEGRGGPLPQEEKWRRGGPGPPFPPDHREFSEGDGRGAARGPPGAWEGRRPGDERFPRDPEDPRFRGRREESFRRGAPPRHEGRAPPRGRDGFPGPEDFGPEENFDASEEAARGRDLRGRGRGTPRGGRKGLLPTPDEFPRFEGGRKPDSWDGNREPGPGHEHFRDTPRPDHPPHDGHSPASRERSSSLQGMDMASLPPRKRPWHDGPGTSEHREMEAPGGPSEDRGGKGRGGPGPAQRVPKSGRSSSLDGEHHDGYHRDEPFGGPPGSGTPSRGGRSGSNWGRGSNMNSGPPRRGASRGGGRGR
B5: ARL10 (protein, UniProt Q8N8L6 1-244, looked up)
ADP-ribosylation factor-like …: MAPRPLGPLVLALGGAAAVLGSVLFILWKTYFGRGRERRWDRGEAWWGAEAARLPEWDEWDPEDEEDEEPALEELEQREVLVLGLDGAGKSTFLRVLSGKPPLEGHIPTWGFNSVRLPTKDFEVDLLEIGGSQNLRFYWKEFVSEVDVLVFVVDSADRLRLPWARQELHKLLDKDPDLPVVVVANKQDLSEAMSMGELQRELGLQAIDNQREVFLLAASIAPAGPTFEEPGTVHIWKLLLELLS
B6: PIGX (protein, UniProt Q8TBF5 22-258, looked up)
GPI …: LTRGPAAAFTAARSDAGIRAMCSEIILRQEVLKDGFHRDLLIKVKFGESIEDLHTCRLLIKQDIPAGLYVDPYELASLRERNITEAVMVSENFDIEAPNYLSKESEVLIYARRDSQCIDCFQAFLPVHCRYHRPHSEDGEASIVVNNPDLLMFCDQEFPILKCWAHSEVAAPCALENEDICQWNKMKYKSVYKNVILQVPVGLTVHTSLVCSVTLLITILCSTLILVAVFKYGHFSL
B7: SYMPK (protein, UniProt Q92797 1-1274, looked up)
Symplekin: MASGSGDSVTRRSVASQFFTQEEGPGIDGMTTSERVVDLLNQAALITNDSKITVLKQVQELIINKDPTLLDNFLDEIIAFQADKSIEVRKFVIGFIEEACKRDIELLLKLIANLNMLLRDENVNVVKKAILTMTQLYKVALQWMVKSRVISELQEACWDMVSAMAGDIILLLDSDNDGIRTHAIKFVEGLIVTLSPRMADSEIPRRQEHDISLDRIPRDHPYIQYNVLWEEGKAALEQLLKFMVHPAISSINLTTALGSLANIARQRPMFMSEVIQAYETLHANLPPTLAKSQVSSVRKNLKLHLLSVLKHPASLEFQAQITTLLVDLGTPQAEIARNMPSSKDTRKRPRDDSDSTLKKMKLEPNLGEDDEDKDLEPGPSGTSKASAQISGQSDTDITAEFLQPLLTPDNVANLVLISMVYLPEAMPASFQAIYTPVESAGTEAQIKHLARLMATQMTAAGLGPGVEQTKQCKEEPKEEKVVKTESVLIKRRLSAQGQAISVVGSLSSMSPLEEEAPQAKRRPEPIIPVTQPRLAGAGGRKKIFRLSDVLKPLTDAQVEAMKLGAVKRILRAEKAVACSGAAQVRIKILASLVTQFNSGLKAEVLSFILEDVRARLDLAFAWLYQEYNAYLAAGASGSLDKYEDCLIRLLSGLQEKPDQKDGIFTKVVLEAPLITESALEVVRKYCEDESRTYLGMSTLRDLIFKRPSRQFQYLHVLLDLSSHEKDKVRSQALLFIKRMYEKEQLREYVEKFALNYLQLLVHPNPPSVLFGADKDTEVAAPWTEETVKQCLYLYLALLPQNHKLIHELAAVYTEAIADIKRTVLRVIEQPIRGMGMNSPELLLLVENCPKGAETLVTRCLHSLTDKVPPSPELVKRVRDLYHKRLPDVRFLIPVLNGLEKKEVIQALPKLIKLNPIVVKEVFNRLLGTQHGEGNSALSPLNPGELLIALHNIDSVKCDMKSIIKATNLCFAERNVYTSEVLAVVMQQLMEQSPLPMLLMRTVIQSLTMYPRLGGFVMNILSRLIMKQVWKYPKVWEGFIKCCQRTKPQSFQVILQLPPQQLGAVFDKCPELREPLLAHVRSFTPHQQAHIPNSIMTILEASGKQEPEAKEAPAGPLEEDDLEPLTLAPAPAPRPPQDLIGLRLAQEKALKRQLEEEQKLKPGGVGAPSSSSPSPSPSARPGPPPSEEAMDFREEGPECETPGIFISMDDDSGLTEAALLDSSLEGPLPKETAAGGLTLKEERSPQTLAPVGEDAMKTPSPAAEDAREPEAKGNS

Tested on: BAF complex subunits and histone proteins
Assay: Mass spectrometry proteomics of purified HA-SS18 WT and HA-SS18-SSX1 complexes (Tables 5A-5E)
Parameters: species or system human
Settings: HEK-293T; for Total (total peptides) / Unique (unique peptides): HA-SS18SSX1 purification, NE (soluble nuclear extract) fraction, peptides per identified protein
[1] = HA-SS18WT_NE_peptides: HA-SS18 WT complexes purified from nuclear extract (NE), label = protein identified (Gene Symbol)
[2] = HA-SS18SSX1_NE_peptides (Table 5B), HA-SS18-SSX1 BAF complex purification from soluble nuclear extract
[3] = HA-SS18WT_NE_peptides: proteins co-purified with HA-SS18 WT from nuclear extract (NE)

Row | Molecule | Total (total peptides) | Unique (unique peptides) | Total (peptides) [1] | Unique (peptides) [1] | Total (peptides) [2] | Unique (peptides) [2] | Total (peptides) [3] | Unique (peptides) [3]
1 | B1 | 13 | 13 | 11 | 11 | – | – | – | –
2 | B2 | – | – | – | – | 1 | 1 | – | –
3 | B3 | – | – | – | – | 1 | 1 | 1 | 1
4 | B4 | 13 | 12 | 10 | 9 | – | – | – | –
5 | B5 | – | – | – | – | 1 | 1 | – | –
6 | B6 | – | – | – | – | 1 | 1 | – | –
7 | B7 | – | – | – | – | 1 | 1 | 1 | 1
